Experimental data reported in PubChem BioAssay AID504408 (Broad Institute, 2011).
Among all 300,000 compounds or so, about 5,200 (1.7%) were called active. Inconclusive results, whose numbers are uncertain, are shown with a selection of clear calls.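 Rule for the calls: active = mean replicate activation of at least 50% with a set share of replicates each reaching 50%; inconclusive = only one of those two conditions met; inactive = mean below 50% and too few replicates reaching it.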

Assay: HSF-1 activators, primary screen, NIH3T3-HGL cells, MG132 stress, luminescence, single point (AID 504408);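 note: 0% = median of the neutral control wells and 100% = twice that signal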
Conditions: NIH3T3-HGL HSF-1 luciferase reporter, MG132, 8 h; at 9 µM; hits give high values; 100% = twice DMSO control signal

activation, active:
Cc1ccccc1C(=O)NC(=S)Nc1ccccc1[N+](=O)[O-] 57.5%
OC(CN1c2ccccc2Sc2ccccc21)Cn1nnc2ccccc21 (configuration not stated) 63.2%
c1ccc(Nc2nc3ccccc3[nH]2)nc1 62.4%
C=CCNc1ncnc2c1[nH]c1ccc(C)cc12 62%
Cc1ccccc1NC(=O)C(=Cc1ccc(C(=O)O)cc1)C(=O)Nc1ccccc1C 146%
CCN(c1ccccc1)S(=O)(=O)c1cc(NC(=O)Nc2ccccc2C#N)ccc1Cl 59%
Cc1ccc(/C=C/C(=O)Nc2ccccc2C(N)=O)cc1 59.1%
COc1ccc(NC(=O)c2csc3c2CCCC3)cc1 53.1%
O=S1(=O)Nc2c(ccc3cccnc23)-c2ccccc21 158%
Cc1sc(NC(=O)c2ccco2)c(CN2CCN(c3ccc(F)cc3)CC2)c1C 86.9%
O=C(/C=C/c1ccc(Cl)cc1Cl)N1CCc2ccccc21 55%
O=C1CC(N2C(=O)/C(=C/C=C/c3ccccc3)SC2=S)C(=O)N1c1ccccc1 (configuration not stated) 83.2%
O=C(CCC1CCCC1)N=C1SC2CS(=O)(=O)CC2N1c1ccccc1F (configuration not stated) 64.3%
Cc1nc(SCC(=O)c2ccccc2)c(C#N)c(-c2ccco2)c1C(=O)NCc1ccco1 76%
CSc1cccc(NC(=O)c2cnn3ccccc23)c1 81.1%

activation, inactive:
Cc1cc(/C=N/n2cnnc2)c(C)n1-c1ccc(OCc2ccc(Cl)cc2)cc1 -48.5%
O=C(Nc1ccncc1)c1ccc(Br)cc1 27.2%
CCCn1c(SCC(=O)N2c3ccccc3Sc3ccccc32)nc2ccccc21 20.6%
COc1cccc(C2CC(c3ccccc3)=NN2S(=O)(=O)c2ccc(C)cc2)c1OC (configuration not stated) 30.9%
CNC(=O)c1c(NC(=O)c2ccc(S(=O)(=O)N(C)c3ccccc3)cc2)sc2c1CCN(C(C)C)C2 -6.7%
O=C1NN(c2ccccc2)C(=O)/C1=C/c1ccc(Sc2ccc(Cl)cc2)o1 16.4%
FC(F)(F)c1cc(-c2ccccc2)nc(N2CCOCC2)n1 -34.7%
CCN1CCN(c2ncnc3sc(C)c(-c4ccccc4)c23)CC1 -14.8%
CCOC(=O)C1=C(COC(=O)COc2ccccc2C#N)NC(=O)NC1C (configuration not stated) -13.1%
CSc1cc(-c2ccncc2)nc(-c2ccc(Cl)cc2)c1 0.762%
CCOC(=O)N1CCN(C(=O)c2ccc(CS(=O)(=O)c3ccc(OC)cc3)o2)CC1 4.32%
CCOC(=O)C1=C(C)Nc2ccc(C)cc2S1 -14.8%
Cc1cccc(Nc2ccccc2C(=O)OCC(=O)N(C)C2CCS(=O)(=O)C2)c1C (configuration not stated) -2.66%
Cc1cc2c(NC(=O)CCCC(=O)O)cccc2nn1 17.7%
COc1ccccc1P(=O)(c1ccccc1)c1ccccc1 -3.59%
Cc1ccccc1/C=C/c1cccc[n+]1C 1.61%
COc1ccc(Br)cc1-c1nc(CCl)cs1 7.5%
Cc1ccc(NC(=O)[C@@H]2CCCN2C(=O)[C@@H]2Cc3ccccc3CN2)c(C)c1 18.8%
CCOc1cc(/C=C\[N+](=O)[O-])ccc1OCC(=O)Nc1ccccc1C -63.2%
CN(C)c1cccc(C(=O)N2CCCC(CCC(=O)NCc3ccccc3F)C2)c1 (configuration not stated) 13.2%

activation, inconclusive:
Fc1cccc(F)c1/C=N/Nc1ccccn1 50.2%
Cc1nn(-c2ccccc2)c(C)c1/C=N/n1c(-c2ccc(Cl)cc2)n[nH]c1=S 50.7%
Cc1c(NC(=O)CSc2cccc3cccnc23)c(=O)n(-c2ccccc2)n1C 56.8%
CC(=O)c1c(C)oc2ccc(N(C(C)=O)S(=O)(=O)c3ccc(Cl)c([N+](=O)[O-])c3)cc12 52.9%
Cc1cc(Cl)c2oc(C(=O)N(C)Cc3ccon3)c(C)c2c1 50.9%
CN1CCN(C(=O)c2cc3sc4ccccc4c3s2)CC1 51.4%
Cc1ccccc1-c1nc2cc(Cl)ccc2o1 51.1%
CC(C)[C@H](N)c1nnc(SC/C=C/c2ccccc2)o1 51.9%
CC1CCC(NC(=O)CCS(=O)(=O)c2ccc3c(c2)NC(=O)CS3)CC1 (configuration not stated) 52.8%
O=C(Nc1ccc(OC(F)(F)F)cc1)c1ccc2c(c1)no[n+]2[O-] 54.7%
Cc1ccc(/C(N)=N/OC(=O)c2ccc(F)cc2)cc1 50.7%
CC1=NN(C(=O)c2ccc(Br)cc2)C(O)(c2ccccc2)C1 (configuration not stated) 50.4%
Cc1ccc(N2C(=O)CC(NNc3nc4ccccc4s3)C2=O)cc1C (configuration not stated) 55.3%
O=C(Nc1nccs1)c1ccc(COc2c(F)c(F)cc(F)c2F)cc1 50.2%
O=C(CSCc1ccccc1)N1CCc2ccccc21 53.6%
O=C(CCc1nnc(Cc2cccc(C(F)(F)F)c2)o1)NCC(F)(F)F 55.1%
CS(=O)(=O)c1ccc(Cl)c(C(=O)NCC2CCCCC2)c1 57.4%
O=c1[nH]c2ccccc2c2cn(-c3ccccc3)nc12 53%
Cn1cnc2cc(NC(=O)c3cccs3)ccc21 52%
CC1=C(C(N)=O)C(c2cccs2)n2nc(-c3cccc(Cl)c3)nc2N1 (configuration not stated) 53.6%
N#Cc1c(N2CCOCC2)nsc1-c1ccc(C(F)(F)F)cc1 50.4%
CCSc1nnc(NC(=O)c2ccccn2)s1 62.6%
COc1ccc(C(=S)N2CCCC2)cc1C 50.7%
Brc1ccc(Cn2c(-c3cncs3)nc3ccccc32)cc1 52.5%
CCN(CC)S(=O)(=O)c1ccc(C(=O)NN(C)C2=NS(=O)(=O)c3ccccc32)cc1 50.8%
Cc1ccc(CSc2nc3ccccc3c(=O)n2CCCC(=O)NCc2ccco2)cc1 56.3%
COc1cc(SC)ccc1C(=O)Nc1c(C)cccc1C 52.4%
CCCCCCOc1ccc(/C(C)=N/NC2=NCCN2)cc1[N+](=O)[O-] 53%
CCCCc1c(O)nc(SCC(=O)N2CCOCC2)n(-c2ccc(OC)cc2)c1=O 57.8%
CCN(Cc1ccccc1)C(c1cccs1)c1nnnn1C1CCCCC1 (configuration not stated) 51.2%
COC(=O)c1sc(N)c(C(=O)OC)c1CSc1nc2sc3c(c2c(=O)n1C)CCC3 53.1%
Cc1ccccc1CN1CCc2c(OCC(=O)N3CCCc4ccccc43)cccc2C1=O 50.6%
O=[N+]([O-])c1cccnc1S(=O)(=O)c1ccccc1 54.5%
CCc1ccc2c(COC(=O)c3n[nH]c4ccccc34)cc(=O)oc2c1 61.4%
CN1C(=O)/C(=C/C=C2\SCCN2C)OC1=S 52.9%
O=C1c2ccccc2C(=O)N1CCCCN(C(=O)c1cccc([N+](=O)[O-])c1)c1ccc(Cl)cc1 52.3%
CCOc1ccccc1NC(=O)C(CC(C)C)NC(=O)C1CCC(C)CC1 (configuration not stated) 50.1%
Cc1cccc(-n2c(CCc3ccccc3)nnc2SCC(=O)c2ccccc2)c1 50%
Cc1ccc(NC(=O)c2ccc(OC(=O)c3cc4ccccc4o3)cc2)cc1 51.8%
CNc1nc(-c2ccccc2)cc(C)c1S(C)(=O)=O 83.6%
Cc1cc(C)c2c(CN3CCC(C)CC3)cc(=O)oc2c1 51.1%
CCOC(=O)c1c(C)[nH]c(N=Nc2cccc(OC)c2)c1C 54.4%
O=C(/C=C/c1ccccc1)Nc1ccc(Cl)cn1 53.9%
O=c1oc2ccccc2c(NC2CCCCC2)c1NS(=O)(=O)c1ccc(Cl)cc1 55.8%
O=C(O)c1cc(N/N=C/c2c(O)ccc3ccccc23)ccc1Cl 60%
Cc1cnc(NC(=O)NCC2CCCC(CNC(=O)Nc3ncc(C)s3)C2)s1 (configuration not stated) 53.8%
COc1ccc(NC(=O)CN(Cc2ccccc2)S(C)(=O)=O)c(OC)c1 57.5%
Cc1cccc(/C=N\NC(=O)c2csnn2)c1 50.6%
COCCNC(=S)N(CCCN(C)C)Cc1cc2cc3c(cc2[nH]c1=O)OCCO3 51.5%
Cc1ccc(/C=N\Nc2nc3ccc(Cl)cc3[nH]2)o1 53.9%
Cc1ccc(-n2cc(-c3ccc([N+](=O)[O-])cc3)[nH]c2=S)c(C)c1 57.5%
CCOc1ccc(N2CC(O)=C(c3nc4ccccc4c(=O)[nH]3)C2=N)cc1 50%
COc1cccc(C(=O)NCCC2=CCCCC2)c1 52.2%
C=C1C(=O)C=C2CN(C(=O)c3ccccc3)[C@@](Cc3ccc(F)cc3)(C(=O)OC)[C@@H]12 58.9%
Cc1cc(Cl)c(S(=O)(=O)NC2CCCC2)cc1OCC(=O)NC1CCCCC1 50.9%
COc1cccc(C(=O)OCC(=O)c2c[nH]c3ccccc23)c1O 55.3%
Cc1nn(C(=O)c2c(-c3ccccc3)noc2C)c(C)c1N=Nc1cc(C(F)(F)F)cc(C(F)(F)F)c1 52.3%

Random excerpt: 6 entries already listed
activation, inconclusive:
CS(=O)(=O)c1ccc(Cl)c(C(=O)NCC2CCCCC2)c1 57.4%
COC(=O)c1sc(N)c(C(=O)OC)c1CSc1nc2sc3c(c2c(=O)n1C)CCC3 53.1%
Cn1cnc2cc(NC(=O)c3cccs3)ccc21 52%
CCN(CC)S(=O)(=O)c1ccc(C(=O)NN(C)C2=NS(=O)(=O)c3ccccc32)cc1 50.8%
COc1ccc(NC(=O)CN(Cc2ccccc2)S(C)(=O)=O)c(OC)c1 57.5%
Cc1cccc(-n2c(CCc3ccccc3)nnc2SCC(=O)c2ccccc2)c1 50%
